Results deposited as PubChem BioAssay AID1053208 (Peter MacCallum Cancer Centre, 2014)
Screen: 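Genes whose silencing cuts survival of bone tumour cells only with doxorubicin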 (primary screen). Cells: mouse osteosarcoma cells, early-passage culture from an engineered mouse model of fibroblastic bone tumour. Reagent: siRNA pool against mouse genes, 40 nM. Duration: about 120 h (48 h before drug, then 72 h with drug). Conditions: doxorubicin 100 nM for 72 h, roughly 30-40% inhibitory dose. Detection: 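Luminescent ATP signal taken as viability with or without 100 nM doxorubicin for 72 h; mean of two wells set against non-targeting siRNA and turned into robust z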. Scale: viability z-score with doxorubicin and doxorubicin viability vs non-targeting: higher = more viable cells under doxorubicin; viability z-score without drug: higher = more viable cells with knock-down alone; z-score of drug to no-drug ratio: higher = less drug sensitisation by knock-down. Call rule: 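a pool counts as active when its viability z-score with doxorubicin is -2 or below and its z-score without drug lies between -2 and 2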.
Here is one part, drawn at random, of about 17,000 reagents. In the full data, 788 (4.7%) are marked active. 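Calls rest on z-score classes alone; an extra cut-off of viability at most 70% of control was not applied to them.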 Entries without a mark were called inactive.

Target gene,combined z-score class,viability z-score with doxorubicin,viability z-score without drug,z-score of drug to no-drug ratio,doxorubicin viability vs non-targeting
Spink4,no change with or without drug,0.34,0.17,0.34,0.97
Terf2,no change with or without drug,-0.67,-1.01,0.11,0.88
Smcp,no change with or without drug,-1.57,-0.84,-1.01,0.8
Manea,low cell count without drug only,-0.79,-2.19,0.9,0.87
Htra2,no change with or without drug,0.9,0,1.01,1.02
Plppr2,no change with or without drug,0.45,1.18,-0.22,0.98
Caly,no change with or without drug,-0.67,0.17,-0.67,0.88
Rpsa,no change with or without drug,-1.35,0.17,-1.46,0.82
Anapc10,low cell count with doxorubicin only (active),-2.47,-0.17,-2.36,0.72
Nfkb1,no change with or without drug,0.67,0.67,0.34,1
St6galnac2,high cell count without drug only,-0.56,2.36,-1.8,0.89
Ddhd1,no change with or without drug,-1.8,0.34,-2.02,0.78
Pgbd5,no change with or without drug,-0.67,-0.84,0,0.88
Efna2,low cell count without drug only,-1.35,-2.02,0.11,0.82
Romo1,low cell count with doxorubicin only (active),-3.26,1.35,-3.93,0.65
Fermt3,no change with or without drug,0.22,0.17,0.22,0.96
Postn,high cell count without drug only,1.46,2.19,0.11,1.07
Mapk8ip1,no change with or without drug,0.22,0,0.34,0.96
Tmem14a,no change with or without drug,0.67,1.52,-0.22,1
Mtrf1l,no change with or without drug,0,0.84,-0.45,0.94
Immt,no change with or without drug,0.45,-0.51,1.01,0.98
Figla,no change with or without drug,0.11,0.51,-0.11,0.95
Perp,no change with or without drug,0.11,0.17,0.11,0.95
Cdk15,no change with or without drug,0.9,-0.84,1.69,1.02
Pim3,no change with or without drug,-0.45,-0.17,-0.22,0.9
Or13l2,no change with or without drug,1.46,-1.85,3.26,1.07
Plce1,no change with or without drug,1.91,0.84,1.46,1.11
Aqp11,no change with or without drug,-0.45,-0.51,0,0.9
Dennd2b,no change with or without drug,-0.11,0.17,-0.11,0.93
Smarcd1,no change with or without drug,0.11,-0.51,0.56,0.95
Ldaf1,no change with or without drug,1.57,0.67,1.24,1.08
Pou2f3,no change with or without drug,1.24,0.67,0.9,1.05
Alox12,no change with or without drug,-0.45,0.67,-0.79,0.9
Mdm4,no change with or without drug,1.8,1.18,1.12,1.1
Foxp1,no change with or without drug,-0.22,0.51,-0.45,0.92
Psmb7,low cell count with and without drug,-7.42,-5.9,-5.73,0.28
Sephs2,no change with or without drug,-0.34,0.84,-0.79,0.91
Fgd2,no change with or without drug,-0.45,-0.17,-0.22,0.9
Or4c12,no change with or without drug,-0.67,-0.51,-0.22,0.88
Scaper,no change with or without drug,0.9,1.52,0,1.02
Rax,high cell count with and without drug,2.36,2.53,0.79,1.15
Gm5089,no change with or without drug,0.67,-0.84,1.46,1
Nudt18,no change with or without drug,1.46,0.34,1.35,1.07
Cant1,no change with or without drug,-0.56,-1.52,0.56,0.89
BC061237,no change with or without drug,-0.56,-0.17,-0.34,0.89
Semp2l2a,no change with or without drug,-0.11,-0.51,0.34,0.93
Hif1an,no change with or without drug,-0.45,0,-0.34,0.9
Rrad,no change with or without drug,0,-0.17,0.22,0.94
Ltap1,no change with or without drug,-0.67,1.35,-1.46,0.88
Cckar,no change with or without drug,-1.01,0.51,-1.24,0.85
